{"source": "patent US8076287B2", "about": "“Cyclic hexadepsipeptides, processes for their production and their use as pharmaceuticals” (priority 2006, dated 2011)", "assay_in_all_cases": "MIC broth dilution, antibacterial activity", "format_in_all_cases": "cell-based", "key": {"[1]": {"tested_on": "Enterococcus faecalis ATCC ™ 29212 (VSE)", "settings": "ATCC29212, BHI+ medium"}, "[2]": {"tested_on": "S. aureus ATCC ™ 6538P (MSSA)", "settings": "Staphylococcus aureus, MH medium, 35° C., 16 to 20 hours"}, "[3]": {"tested_on": "S. epidermidis ATCC ™ 12228", "settings": "Staphylococcus epidermidis, ATCC12228, MH medium, 35° C., 16 to 20 hours"}, "[4]": {"tested_on": "Enterococcus faecalis ATCC ™ 51299 (VRE)", "settings": "BHI+ medium"}, "[5]": {"tested_on": "S. aureus MRS3 ATCC ™ 700699 (MRSA-hVISA)", "settings": "Staphylococcus aureus, MH medium, 35° C., 16 to 20 hours"}}}
{"smiles": "CN[C@H](CC(C)C)C(=O)N[C@H]1C(=O)N[C@@H](CC(N)=O)C(=O)N[C@H]2C(=O)N[C@H]3C(=O)N[C@H](C(=O)N[C@H](C(=O)O)c4cc(O)cc(O)c4-c4cc3ccc4O)[C@H](O)c3ccc(c(Cl)c3)Oc3cc2cc(c3O[C@@H]2O[C@H](CO)[C@@H](O)[C@H](O)[C@H]2O[C@H]2C[C@](C)(N)[C@H](O)[C@H](C)O2)Oc2ccc(cc2Cl)[C@H]1O", "note": "[Vancomycin, reference compound]", "values": [{"measurement": "MIC", "setting": "[1]", "result": 4, "unit": "µg/mL"}, {"measurement": "MIC", "setting": "[2]", "result": 1, "unit": "µg/mL"}, {"measurement": "MIC", "setting": "[3]", "result": 2, "unit": "µg/mL"}, {"measurement": "MIC", "setting": "[4]", "result": 32, "unit": "µg/mL"}, {"measurement": "MIC", "setting": "[5]", "result": 4, "unit": "µg/mL"}]}
